Source: the supplement of paper PMC10849652
Some of the results follow.

Protein sequences, listed by entry. Tags and fused reporters are not part of them. Lines headed by an entry give the natural chain unless they say otherwise; changes in a name come on top.
UniProt Q6P3S6: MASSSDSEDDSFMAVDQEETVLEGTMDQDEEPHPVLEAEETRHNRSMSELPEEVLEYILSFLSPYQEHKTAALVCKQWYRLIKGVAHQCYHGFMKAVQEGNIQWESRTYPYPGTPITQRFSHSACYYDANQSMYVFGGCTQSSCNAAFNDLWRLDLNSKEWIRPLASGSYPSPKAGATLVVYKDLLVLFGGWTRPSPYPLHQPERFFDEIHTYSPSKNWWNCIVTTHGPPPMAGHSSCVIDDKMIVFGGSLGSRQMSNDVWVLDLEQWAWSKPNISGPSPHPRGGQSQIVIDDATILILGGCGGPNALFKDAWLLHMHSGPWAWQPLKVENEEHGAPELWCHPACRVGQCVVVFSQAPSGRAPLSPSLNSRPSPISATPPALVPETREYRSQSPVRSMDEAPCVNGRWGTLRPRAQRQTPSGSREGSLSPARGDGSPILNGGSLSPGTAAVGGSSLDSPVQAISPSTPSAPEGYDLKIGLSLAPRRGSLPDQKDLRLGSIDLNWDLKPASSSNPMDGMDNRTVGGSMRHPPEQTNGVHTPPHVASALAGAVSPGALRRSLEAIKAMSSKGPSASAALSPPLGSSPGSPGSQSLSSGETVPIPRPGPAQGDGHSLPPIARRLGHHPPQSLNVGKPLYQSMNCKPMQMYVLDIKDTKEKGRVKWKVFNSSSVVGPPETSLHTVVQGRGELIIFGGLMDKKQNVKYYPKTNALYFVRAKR
UniProt Q8TDW7: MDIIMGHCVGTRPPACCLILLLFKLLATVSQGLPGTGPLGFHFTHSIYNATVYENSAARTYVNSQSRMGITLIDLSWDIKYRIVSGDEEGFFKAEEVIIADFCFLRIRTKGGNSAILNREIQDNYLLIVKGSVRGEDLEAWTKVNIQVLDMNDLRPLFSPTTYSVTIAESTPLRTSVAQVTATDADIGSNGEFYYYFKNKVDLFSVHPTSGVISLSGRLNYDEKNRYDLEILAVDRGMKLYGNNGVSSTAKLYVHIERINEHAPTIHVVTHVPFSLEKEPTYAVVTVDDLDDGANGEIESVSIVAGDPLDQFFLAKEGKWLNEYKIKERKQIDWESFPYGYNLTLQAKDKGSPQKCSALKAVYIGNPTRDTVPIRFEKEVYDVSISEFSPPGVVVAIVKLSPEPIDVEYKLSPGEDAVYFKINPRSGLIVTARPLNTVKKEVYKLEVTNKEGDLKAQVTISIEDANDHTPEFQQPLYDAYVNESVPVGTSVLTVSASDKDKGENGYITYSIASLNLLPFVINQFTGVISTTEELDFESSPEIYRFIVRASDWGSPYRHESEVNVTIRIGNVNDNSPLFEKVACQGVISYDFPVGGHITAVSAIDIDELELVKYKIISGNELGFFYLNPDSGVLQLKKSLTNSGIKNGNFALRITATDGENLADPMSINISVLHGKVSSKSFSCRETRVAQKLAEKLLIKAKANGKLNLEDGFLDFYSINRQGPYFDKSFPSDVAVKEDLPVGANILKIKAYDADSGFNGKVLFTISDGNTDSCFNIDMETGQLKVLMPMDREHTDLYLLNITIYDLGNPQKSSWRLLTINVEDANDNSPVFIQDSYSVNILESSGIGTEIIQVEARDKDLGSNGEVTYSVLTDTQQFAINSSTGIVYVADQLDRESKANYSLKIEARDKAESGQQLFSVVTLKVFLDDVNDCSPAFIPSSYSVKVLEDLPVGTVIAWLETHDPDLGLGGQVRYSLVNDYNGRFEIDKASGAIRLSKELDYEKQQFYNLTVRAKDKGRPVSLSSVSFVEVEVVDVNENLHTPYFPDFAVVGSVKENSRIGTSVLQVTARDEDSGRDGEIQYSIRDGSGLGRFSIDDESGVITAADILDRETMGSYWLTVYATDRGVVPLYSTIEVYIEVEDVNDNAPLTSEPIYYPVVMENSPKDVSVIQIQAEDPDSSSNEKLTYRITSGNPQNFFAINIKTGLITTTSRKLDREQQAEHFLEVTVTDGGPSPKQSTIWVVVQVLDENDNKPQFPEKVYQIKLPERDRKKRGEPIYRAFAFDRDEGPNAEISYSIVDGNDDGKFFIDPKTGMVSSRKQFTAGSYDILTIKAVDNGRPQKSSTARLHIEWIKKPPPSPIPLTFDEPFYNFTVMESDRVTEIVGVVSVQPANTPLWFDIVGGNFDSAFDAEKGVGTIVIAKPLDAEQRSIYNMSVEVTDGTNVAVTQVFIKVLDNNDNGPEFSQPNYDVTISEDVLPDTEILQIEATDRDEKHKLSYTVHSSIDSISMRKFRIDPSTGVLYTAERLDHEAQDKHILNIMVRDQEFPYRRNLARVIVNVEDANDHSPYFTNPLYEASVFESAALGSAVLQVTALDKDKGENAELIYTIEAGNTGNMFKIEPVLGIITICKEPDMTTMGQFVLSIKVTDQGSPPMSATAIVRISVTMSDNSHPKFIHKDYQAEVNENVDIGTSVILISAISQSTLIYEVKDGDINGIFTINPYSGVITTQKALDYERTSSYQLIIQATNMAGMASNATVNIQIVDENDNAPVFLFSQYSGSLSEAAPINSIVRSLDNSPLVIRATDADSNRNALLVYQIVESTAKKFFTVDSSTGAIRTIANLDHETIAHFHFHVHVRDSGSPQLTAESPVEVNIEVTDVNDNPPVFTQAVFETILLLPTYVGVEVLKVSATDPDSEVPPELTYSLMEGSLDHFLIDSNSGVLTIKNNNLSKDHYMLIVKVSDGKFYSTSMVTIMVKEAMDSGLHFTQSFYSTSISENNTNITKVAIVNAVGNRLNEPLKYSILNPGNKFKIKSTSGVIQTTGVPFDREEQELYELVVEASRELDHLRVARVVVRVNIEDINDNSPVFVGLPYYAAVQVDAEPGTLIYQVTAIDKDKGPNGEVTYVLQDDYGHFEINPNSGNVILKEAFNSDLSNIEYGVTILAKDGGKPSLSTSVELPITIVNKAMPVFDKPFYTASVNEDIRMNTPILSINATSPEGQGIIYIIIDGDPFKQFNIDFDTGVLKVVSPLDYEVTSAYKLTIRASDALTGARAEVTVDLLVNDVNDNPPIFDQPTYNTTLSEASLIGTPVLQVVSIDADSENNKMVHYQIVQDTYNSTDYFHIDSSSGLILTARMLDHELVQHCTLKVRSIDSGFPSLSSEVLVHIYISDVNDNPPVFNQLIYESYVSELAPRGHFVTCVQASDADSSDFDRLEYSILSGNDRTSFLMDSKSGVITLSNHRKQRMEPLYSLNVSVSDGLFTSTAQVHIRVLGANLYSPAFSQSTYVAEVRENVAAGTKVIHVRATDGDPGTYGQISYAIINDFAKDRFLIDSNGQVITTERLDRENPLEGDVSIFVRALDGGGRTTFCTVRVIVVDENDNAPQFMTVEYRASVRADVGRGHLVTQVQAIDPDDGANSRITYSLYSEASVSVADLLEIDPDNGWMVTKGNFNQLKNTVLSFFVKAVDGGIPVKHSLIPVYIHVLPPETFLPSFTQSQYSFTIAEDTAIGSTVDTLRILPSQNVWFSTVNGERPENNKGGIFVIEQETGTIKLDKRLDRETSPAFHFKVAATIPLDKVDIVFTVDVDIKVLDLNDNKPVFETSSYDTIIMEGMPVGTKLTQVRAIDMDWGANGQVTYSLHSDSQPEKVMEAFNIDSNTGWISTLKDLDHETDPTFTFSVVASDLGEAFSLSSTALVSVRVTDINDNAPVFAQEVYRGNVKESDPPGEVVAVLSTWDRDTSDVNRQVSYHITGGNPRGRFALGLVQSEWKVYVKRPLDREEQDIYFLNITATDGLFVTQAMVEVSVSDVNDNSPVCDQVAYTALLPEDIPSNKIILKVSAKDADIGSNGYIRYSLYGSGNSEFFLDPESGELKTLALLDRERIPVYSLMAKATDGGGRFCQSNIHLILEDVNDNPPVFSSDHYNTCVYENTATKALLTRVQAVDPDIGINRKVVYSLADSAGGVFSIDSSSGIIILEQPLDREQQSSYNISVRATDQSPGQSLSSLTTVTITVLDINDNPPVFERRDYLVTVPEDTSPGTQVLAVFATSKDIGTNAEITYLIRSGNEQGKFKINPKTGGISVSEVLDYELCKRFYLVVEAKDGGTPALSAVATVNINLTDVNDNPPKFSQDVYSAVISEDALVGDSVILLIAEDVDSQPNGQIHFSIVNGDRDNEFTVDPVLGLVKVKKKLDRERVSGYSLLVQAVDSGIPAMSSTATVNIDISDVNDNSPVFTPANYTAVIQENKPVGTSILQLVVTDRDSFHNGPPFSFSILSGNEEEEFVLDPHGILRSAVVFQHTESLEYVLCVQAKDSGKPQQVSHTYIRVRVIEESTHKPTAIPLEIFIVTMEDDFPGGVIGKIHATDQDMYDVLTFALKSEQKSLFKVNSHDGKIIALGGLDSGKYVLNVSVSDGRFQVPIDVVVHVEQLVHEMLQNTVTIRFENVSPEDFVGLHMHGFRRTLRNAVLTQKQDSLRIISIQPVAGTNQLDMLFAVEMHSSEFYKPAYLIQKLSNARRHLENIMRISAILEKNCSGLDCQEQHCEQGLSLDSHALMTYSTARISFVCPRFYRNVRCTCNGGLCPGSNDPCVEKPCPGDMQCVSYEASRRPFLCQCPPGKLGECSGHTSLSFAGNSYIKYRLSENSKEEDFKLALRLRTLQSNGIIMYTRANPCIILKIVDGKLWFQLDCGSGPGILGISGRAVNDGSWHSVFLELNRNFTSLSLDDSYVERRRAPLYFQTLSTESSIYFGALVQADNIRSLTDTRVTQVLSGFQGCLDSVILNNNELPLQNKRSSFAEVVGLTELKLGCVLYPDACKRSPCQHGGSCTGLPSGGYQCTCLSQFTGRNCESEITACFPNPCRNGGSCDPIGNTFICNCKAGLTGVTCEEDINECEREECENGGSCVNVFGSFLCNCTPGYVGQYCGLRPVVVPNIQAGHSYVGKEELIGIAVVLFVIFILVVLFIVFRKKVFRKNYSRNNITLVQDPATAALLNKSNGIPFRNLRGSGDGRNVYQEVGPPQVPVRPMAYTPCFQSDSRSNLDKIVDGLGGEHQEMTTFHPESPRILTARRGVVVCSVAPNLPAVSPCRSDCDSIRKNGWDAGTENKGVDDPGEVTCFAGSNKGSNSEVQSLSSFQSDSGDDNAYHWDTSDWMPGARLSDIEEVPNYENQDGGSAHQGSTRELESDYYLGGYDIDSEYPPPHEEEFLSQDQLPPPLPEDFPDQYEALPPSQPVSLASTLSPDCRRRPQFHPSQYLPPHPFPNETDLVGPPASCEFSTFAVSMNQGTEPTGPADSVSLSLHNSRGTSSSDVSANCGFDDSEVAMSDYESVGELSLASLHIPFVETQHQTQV
UniProt Q6PIW4: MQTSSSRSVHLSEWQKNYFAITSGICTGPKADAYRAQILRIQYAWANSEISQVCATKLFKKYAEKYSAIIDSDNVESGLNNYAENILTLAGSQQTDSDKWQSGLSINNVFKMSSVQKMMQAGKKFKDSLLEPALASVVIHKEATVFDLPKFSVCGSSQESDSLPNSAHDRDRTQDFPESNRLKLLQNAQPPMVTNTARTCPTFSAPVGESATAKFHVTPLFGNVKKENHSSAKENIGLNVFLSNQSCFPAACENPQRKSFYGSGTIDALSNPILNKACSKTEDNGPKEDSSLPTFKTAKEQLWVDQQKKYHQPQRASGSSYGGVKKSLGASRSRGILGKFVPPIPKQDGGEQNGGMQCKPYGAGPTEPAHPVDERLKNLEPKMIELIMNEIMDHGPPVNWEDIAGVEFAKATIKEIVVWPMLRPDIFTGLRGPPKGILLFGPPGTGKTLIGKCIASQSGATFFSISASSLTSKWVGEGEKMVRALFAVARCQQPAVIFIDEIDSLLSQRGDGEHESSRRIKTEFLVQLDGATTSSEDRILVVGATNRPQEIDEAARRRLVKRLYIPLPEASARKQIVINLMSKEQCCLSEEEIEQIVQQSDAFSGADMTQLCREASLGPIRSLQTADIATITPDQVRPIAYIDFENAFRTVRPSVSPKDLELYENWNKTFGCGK
UniProt Q9Y3D6: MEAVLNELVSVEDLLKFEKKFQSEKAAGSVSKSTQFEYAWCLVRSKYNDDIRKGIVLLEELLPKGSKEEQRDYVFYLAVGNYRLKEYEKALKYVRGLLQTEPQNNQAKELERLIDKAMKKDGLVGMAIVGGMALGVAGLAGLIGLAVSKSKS
UniProt P26885: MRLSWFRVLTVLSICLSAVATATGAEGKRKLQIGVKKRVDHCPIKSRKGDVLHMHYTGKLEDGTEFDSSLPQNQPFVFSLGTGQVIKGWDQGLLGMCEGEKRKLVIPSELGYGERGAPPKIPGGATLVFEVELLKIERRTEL
UniProt Q00688: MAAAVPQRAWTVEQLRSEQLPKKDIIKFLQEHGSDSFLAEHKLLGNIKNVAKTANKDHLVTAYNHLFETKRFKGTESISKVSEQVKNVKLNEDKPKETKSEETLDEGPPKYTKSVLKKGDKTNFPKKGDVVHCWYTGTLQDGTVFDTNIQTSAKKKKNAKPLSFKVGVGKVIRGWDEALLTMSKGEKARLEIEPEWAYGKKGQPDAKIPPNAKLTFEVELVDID

What was measured:
Experiment in all cases: log2 fold change, soluble protein after heating vs DMSO (PISA); higher = thermal stabilisation; K562 lysate, 10 uM; active = over 0.2 and 3.5 SD of the protein, either way, in both replicates (recomputed)
[1] = compound: C#Cc1cccc(Nc2ncnc3cc(OCCOC)c(OCCOC)cc23)c1 [erlotinib]
How it was run: (§1)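 To prepare the extract, K562 pellets were dounce-homogenised in PBS pH 7.4 with 1 mM MgCl2, giving crude material at 1 mg/mL protein. This was treated with 10 μM compound for 30 min, then heated in aliquots for 3 min over 48°C-58°C before pooling and addition of NP-40 to 0.5% at 4°C. Centrifugation at 21,000xg for 90 min left soluble protein in the supernatant, which TMTpro 16plex LC-MS/MS quantified with equalised channel sums. Results are log-two fold changes in thermal stability compared with solvent controls, from duplicates.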

[2] = compound: C/C(=N\NC(=O)C1=CC(=CC=C1)S(=O)(=O)N2CCOCC2)/C3=C(C=CC(=C3)Cl)O
How it was run: as §1

[3] = compound: C1=CC(=CC=C1C2=NC3=C(N2)C=C(C=C3)C(=O)N)OC4=CC=C(C=C4)Cl
How it was run: as §1

[4] = compound: C1=CC2=C(C=CC(=C2)/C=C\3/C(=O)NC(=NCC4=CC=CS4)S3)N=C1
How it was run: as §1

[5] = compound: C1=CC2=NC=CN=C2C=C1/C=C/3\C(=O)NC(=O)S3
How it was run: as §1

[6] = compound: C1=CC=C(C=C1)C2=NC(=C(N2)C3=CC=NC=C3)C4=CC(=C(C=C4)Cl)O
How it was run: as §1

[7] = compound: C1=CC=C2C(=C1)C3=NNC4=CC=CC(=C43)C2=O
How it was run: as §1

[8] = compound: C1CCN(C1)C(=O)NC2=CC=CC(=C2)NC3=NC=C(C(=N3)NCCC4=CN=CN4)Br
How it was run: as §1

[9] = compound: C1CN(CCC1(CC2=CC=C(C=C2)Cl)N)C3=NC=NC4=C3C=CN4
How it was run: as §1

[10] = compound: C1COCCN1CCN2C3=CC=CC=C3N=C2NC(=O)C4=CC(=CC=C4)[N+](=O)[O-] [IRAK-1-4 Inhibitor I]
How it was run: as §1

[11] = compound: C=CC(=O)N1CCC[C@@H](n2nc(-c3ccc(Oc4ccccc4)cc3)c3c(N)ncnc32)C1 [ibrutinib]
How it was run: as §1

[12] = compound: CC(=O)c1cnc2ccc(-c3cc(Cl)c(O)c(Cl)c3)nc2c1N[C@H]1CC[C@H](CN(C)C)CC1
How it was run: as §1

[13] = compound: CC(C)(C)Cn1c(N)nc2ccc(-c3[nH]c(C(C)(C)C)nc3-c3ccc(F)cc3)nc21 [ralimetinib]
How it was run: as §1

[14] = compound: CC(C)(O)CC(=O)NCCn1ccc2ncnc(Nc3ccc(Oc4cccc(C(F)(F)F)c4)c(Cl)c3)c21
How it was run: as §1

[15] = compound: CC(C)C1=C2N=C(C=C(N2N=C1)NCC3=CC=CC=C3)NCCCCCCN
How it was run: as §1

[16] = compound: CC1=C(C(CC(=O)N1)C2=CC=C(C=C2)C(F)(F)F)C(=O)NC3=C(C=C4C(=C3)C=NN4)F
How it was run: as §1

[17] = compound: CC1=C(C2=C(C=C1)C(=O)C3=CC=CC=C3N2CCCN)C
How it was run: as §1

[18] = compound: CC1=C(C=C(C=C1)NC(=O)C2=CC(=CC=C2)C(C)(C)C#N)NC3=CC4=C(C=C3)N=CN(C4=O)C
How it was run: as §1

[19] = compound: CC1=C(C=C(C=C1)NC(=O)C2=CC(=CC=C2)N(C)C)NC(=O)C3=CC=C(C=C3)O
How it was run: as §1

[20] = compound: CC1=CC=C(C=C1)SC2=C3C=C(SC3=CN=C2)C(=O)N
How it was run: as §1

Measured: log2 fold change

FBXO42 (UniProt Q6P3S6)
inactive: [1] 0.031 | [2] 0.008 | [3] 0.002 | [4] -0.03 | [5] -0.073 | [6] -0.063 | [7] -0.023 | [8] -0.059 | [9] -0.011 | [10] 0.012 | [11] 0.021 | [12] -0.01 | [13] -0.002 | [14] 0 | [15] 0.006 | [16] 0.022 | [17] -0.042 | [18] -0.011 | [19] 0.04 | [20] 0.061

FAT3 isoform 1 (UniProt Q8TDW7)
inactive: [1] -0.027 | [2] 0.046 | [3] 0.333 | [4] -0.065 | [5] 0.024 | [6] 0.022 | [7] 0.007 | [8] 0 | [9] 0.065 | [10] 0.042 | [11] 0.022 | [12] 0.011 | [13] -0.018 | [14] 0.071 | [15] 0.043 | [16] 0.055 | [17] -0.125 | [18] -0.009 | [19] 0.06 | [20] 0.049

FIGNL1 (UniProt Q6PIW4)
inactive: [1] -0.008 | [2] -0.019 | [3] -0.025 | [4] 0.005 | [5] -0.011 | [6] -0.005 | [7] -0.015 | [8] 0.035 | [9] 0.006 | [10] 0.008 | [11] 0 | [12] 0.063 | [13] 0.04 | [14] 0.022 | [15] -0.006 | [16] -0.067 | [17] 0.008 | [18] -0.002 | [19] 0.02 | [20] 0.037

FECH isoform 2 (UniProt P22830)
inactive: [1] 0.101 | [2] 0.062 | [3] -0.321 | [4] 0.42 | [5] -0.014 | [6] 0.354 | [7] 0.673 | [8] 0.183 | [9] -0.009 | [10] 0.644 | [11] 0.091 | [12] 0.104 | [13] -0.034 | [14] 0.504 | [15] 0.327 | [16] -0.263 | [17] 0.287 | [18] 0.748 | [19] 0.028
active: [20] -1.11

FIS1 (UniProt Q9Y3D6)
inactive: [1] -0.016 | [2] -0.025 | [3] 0.018 | [4] 0.01 | [5] -0.024 | [6] 0.01 | [7] 0.031 | [8] -0.029 | [9] -0.014 | [10] -0.036 | [11] 0.063 | [12] 0.01 | [13] 0.004 | [14] -0.006 | [15] -0.019 | [16] 0.026 | [17] -0.054 | [18] 0.06 | [19] -0.032 | [20] -0.019

FKBP2 (UniProt P26885)
inactive: [1] 0.021 | [2] -0.014 | [3] -0.023 | [4] -0.084 | [5] -0.03 | [6] 0.01 | [7] 0.03 | [8] 0.006 | [9] 0.005 | [10] 0.03 | [11] -0.028 | [12] -0.022 | [13] 0.018 | [14] 0.025 | [15] 0.009 | [16] 0.015 | [17] 0.005 | [18] -0.053 | [19] -0.027 | [20] -0.028

FKBP3 (UniProt Q00688)
inactive: [1] 0 | [2] -0.006 | [3] 0.03 | [4] -0.033 | [5] -0.005 | [6] 0.004 | [7] -0.001 | [8] 0.017 | [9] 0.036 | [10] 0.004 | [11] -0.036 | [12] -0.013 | [13] -0.002 | [14] -0.003 | [15] 0.044 | [16] -0.027 | [17] 0.016 | [18] 0.008 | [19] -0.017 | [20] -0.017

FBXO22 (UniProt Q8NEZ5)
inactive: [1] 0.042 | [2] -0.022 | [3] 0.048 | [4] 0.016 | [5] 0.02 | [6] -0.002 | [7] -0.01 | [8] 0.029 | [9] 0.049 | [10] 0.007 | [11] -0.03 | [12] 0.017 | [13] 0.003 | [14] -0.06 | [15] -0.078 | [16] -0.026 | [17] -0.006 | [18] 0.016 | [19] 0 | [20] -0.014
